PubChem BioAssay AID602196 – INSERM | 2012

Screen: 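Knock-downs that protect lung cancer cells from cisplatin or sensitise them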
Cell system: human A549 lung cancer cells
Knock-down reagent: siRNA pair against human genes
Timing: 48 h transfection before cisplatin; time from cisplatin to read-out not stated
Treatment: cisplatin at a dose killing half of control-siRNA cells; exact dose and duration not given
Measurement: 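Shift in cisplatin death relative to control siRNA, from -50 (all cells die) to +50 (no cells die); siRNAs harmful on their own scored 0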
Scale: two-siRNA summed score (-2 to +2): higher = both siRNAs protect from cisplatin killing; -2 means both sensitise; mean protection from cisplatin (shift in death) and protection from cisplatin (shift in death), siRNA C and protection from cisplatin (shift in death), siRNA D: higher = protection from cisplatin killing
Active means: 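siRNAs harmful alone (LDH or WST-1) get 0; others get +1 for less and -1 for more cisplatin killing; genes are active when the two siRNAs give the same sign, summing to ±2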
Calls: active = both siRNAs shift cisplatin killing the same way; inactive = no consistent shift, or siRNA harmful alone
In all, the deposit lists about 23,000 reagents; this is a part drawn at random. Of all reagents, 455 (2%) were called active. 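Active includes both protection and sensitisation; some change values fall well beyond the stated -50 to +50 range.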 A number with no mark means an inactive call. Reagents against one gene are numbered here. Not stated in the record: the amount of reagent.

The first 5 entries, ahead of the listing:
gene	reagent no.	two-siRNA summed score (-2 to +2)	mean protection from cisplatin (shift in death) (%)	protection from cisplatin (shift in death), siRNA C (%)	protection from cisplatin (shift in death), siRNA D (%)
KLRC2	1	0	13.1	25.7	0.4
LOC133491	1	0	4.6	0.8	8.4
C10orf67	1	-1	-9.8	-24.4	4.7
C10orf67	2	1	12.5	19.7	5.2
PALLD	1	0	9.2	11.1	7.3

The listing, repeating the preview:
gene	reagent no.	two-siRNA summed score (-2 to +2)	mean protection from cisplatin (shift in death) (%)	protection from cisplatin (shift in death), siRNA C (%)	protection from cisplatin (shift in death), siRNA D (%)
KLRC2	1	0	13.1	25.7	0.4
LOC133491	1	0	4.6	0.8	8.4
C10orf67	1	-1	-9.8	-24.4	4.7
C10orf67	2	1	12.5	19.7	5.2
PALLD	1	0	9.2	11.1	7.3
KRT31	1	0	4.4	6.2	2.6
FBLN7	1	-1	20.3	-12.2	52.7
DSCR8	1	0	1.1	3.2	-0.9
SNX1	1	0	8.1	9.4	6.9
KTI12	1	-1	0.1	14.4	-14.2
LOC388893	1	-1	-15.1	-27.3	-2.8
PPFIA4	1	0	-3.9	-5.1	-2.8
LOC441668	1	1	9.3	22.5	-3.9
PRADC1	1	0	4.5	-3.7	12.6
GALNT1	1	-2 (active)	-10.1	-11.6	-8.6
SHANK2-AS3	1	1	13	23.1	2.9
ZNF773	1	1	5.6	-1.6	12.9
RBM23	1	0	2.3	-3.6	8.2
LOC440862	1	0	5.9	18.9	-7.1
EXOC6B	1	0	9.2	10.6	7.7
LOC390615	1	0	-0.1	2.6	-2.8
CHCHD10	1	0	26.8	27.9	25.8
ATG2B	1	-1	-7.3	3.4	-17.9
LOC441749	1	0	12.5	-0.8	25.8
CPLANE1	1	0	4.6	9.5	-0.3
KCNAB2	1	0	-4.6	6.4	-15.6
SULF1	1	-1	-24.8	-18.3	-31.2
ZNF663P	1	1	10.8	7.6	14.1
PRDM4	1	0	5.6	17.5	-6.3
ST6GAL1	1	1	10.7	14.5	6.9
RPSA2	1	0	21.2	24.2	18.2
SRGAP1	1	-1	-6.3	5.6	-18.2
LOC441186	1	1	13.9	8	19.7
FRZB	1	0	1.2	15.8	-13.5
ZNF28	1	1	10.8	8.3	13.3
JAKMIP1	1	0	-7.7	-6.7	-8.6
SLC38A7	1	-1	-14.1	-0.7	-27.5
GCDH	1	1	17.9	26.3	9.4
RALGDS	1	-1	-12	-1.8	-22.2
ZBTB16	1	-1	-9.5	-1.9	-17.1
CTPS1	1	0	-0.7	-11	9.6
DEFB132	1	1	11.7	15.4	8
LOC441169	1	1	9.1	13.2	5.1
ZNF114	1	0	-4.8	-4.9	-4.6
ASIC2-AS1	1	0	0.3	-9.7	10.3
AHSG	1	0	-5.1	-5.1	-5
ANKDD1A	1	0	13.8	26.3	1.2
SLC22A23	1	1	12.4	18.3	6.4
ABCB4	1	0	22.4	-10.3	55.1
KIAA0459	1	0	7.7	8.1	7.4
CCDC122	1	0	-1	-1.6	-0.4
ZSCAN21	1	0	7.6	4.2	11.1
PEX5	1	0	10.4	9.2	11.6
LINC02716	1	0	4.8	3.8	5.7
CTTN	1	-1	3.6	21.4	-14.3
LOC401922	1	0	12	28.5	-4.4
EPCAM	1	1	6.5	-3.4	16.4
